The target in experiment [1] is haemagglutinin (HA)-tagged β2-AR, full-length (UniProt P07550). Kind of experiment: co-IP; HEK293T cells transfected with full-length or truncated HA-tagged β2-AR and Myc-tagged YB-1.
In experiment [2] the target is cytoplasmic C-terminus of β2-AR (314–413 aa) (UniProt P07550). The description is as above.
The target of experiment [3] is Y-box binding protein 1 (human (endogenous in HCC tissue and SMMC-7721)) (UniProt P67809). Kind of experiment: co-IP; endogenous proteins in SMMC-7721 cell lysates, cells pre-treated with 10 μM ISO; IP with an antibody to one partner, blot of the other.
Experiment [4] shares this target. As to the kind of experiment: co-IP; endogenous proteins in metastatic HCC tissue specimens; IP with anti-β2-AR or anti-YB-1 antibody, blot of the other.
Experiment [5] has as its target phosphorylated β2-AR (human (endogenous in SMMC-7721)) (UniProt P07550). As to the kind of experiment: co-IP; endogenous proteins in SMMC-7721 cell lysates, cells pre-treated with 10 μM ISO; IP with an antibody to one partner, blot of the other.
A further experiment has as its target GST-YB-1 (UniProt P67809). Kind of experiment: pull-down; GST pull-down of HA-β2-AR from whole-cell extracts of HEK293T cells, with GST or GST-YB-1.
Experiment [6] concerns the target β2-adrenergic receptor (human (endogenous in HCC tissue and SMMC-7721)) (UniProt P07550). Kind of experiment: co-IP; endogenous proteins in SMMC-7721 cell lysates, cells pre-treated with 10 μM ISO; IP with an antibody to one partner, blot of the other.
Experiment [7] shares this target. As to the kind of experiment: co-IP; endogenous proteins in metastatic HCC tissue specimens; IP with anti-β2-AR or anti-YB-1 antibody, blot of the other.
Experiment [8] has as its target phosphorylated YB-1 (S102) (human (endogenous in SMMC-7721)) (UniProt P67809). As to the kind of experiment: co-IP; endogenous proteins in SMMC-7721 cell lysates, cells pre-treated with 10 μM ISO; IP with an antibody to one partner, blot of the other.

The chains behind the UniProt entries cited, without tags or fusion partners.
UniProt P67809: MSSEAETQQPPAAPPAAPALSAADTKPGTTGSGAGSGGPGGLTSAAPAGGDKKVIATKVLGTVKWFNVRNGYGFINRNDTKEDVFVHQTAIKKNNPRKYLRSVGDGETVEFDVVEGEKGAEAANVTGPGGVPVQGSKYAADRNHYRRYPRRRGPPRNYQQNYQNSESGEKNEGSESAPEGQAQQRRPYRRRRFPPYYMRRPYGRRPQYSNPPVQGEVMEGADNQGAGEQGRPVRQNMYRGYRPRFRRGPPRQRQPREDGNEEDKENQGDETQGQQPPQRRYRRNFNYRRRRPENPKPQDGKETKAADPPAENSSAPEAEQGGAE

No constants are given. Whether binding was seen depends on the method and setting. In cells and extracts the contact can be indirect. Some results given as binding are weak or reduced against the parent protein; the word gives no strength.

With “Myc-tagged YB-1, full-length (from UniProt P67809 1-324)”, the binding entry in [1] and in experiment [2] was “binds” throughout. For the substance “β2-adrenergic receptor (from UniProt P07550 1-413)”, the binding entry in [3] and in [4] was “binds” each time. On to “phosphorylated YB-1 (S102) (from UniProt P67809 1-324)”, for which the binding entry in experiment [5] was “binds”. For the substance “haemagglutinin (HA)-tagged β2-AR, full-length (from UniProt P07550 1-413) (receptor)”, the binding entry in the experiment with GST-YB-1 was “binds”. In the case of “Y-box binding protein 1 (from UniProt P67809 1-324)”, the binding result in experiment [6] and in experiment [7] was “binds” throughout. Take “phosphorylated β2-AR (from UniProt P07550 1-413) (receptor)”: the binding entry in experiment [8] is “binds”.

The record behind these values is paper PMC7515897.
